# For at least one compound, name, drawing or mass did not settle the structure.
# By UniProt entry, the sequences of proteins in these tests, tags left out. Residues count along the entry.
# UniProt P08069, 741-1367 partner limits assumed: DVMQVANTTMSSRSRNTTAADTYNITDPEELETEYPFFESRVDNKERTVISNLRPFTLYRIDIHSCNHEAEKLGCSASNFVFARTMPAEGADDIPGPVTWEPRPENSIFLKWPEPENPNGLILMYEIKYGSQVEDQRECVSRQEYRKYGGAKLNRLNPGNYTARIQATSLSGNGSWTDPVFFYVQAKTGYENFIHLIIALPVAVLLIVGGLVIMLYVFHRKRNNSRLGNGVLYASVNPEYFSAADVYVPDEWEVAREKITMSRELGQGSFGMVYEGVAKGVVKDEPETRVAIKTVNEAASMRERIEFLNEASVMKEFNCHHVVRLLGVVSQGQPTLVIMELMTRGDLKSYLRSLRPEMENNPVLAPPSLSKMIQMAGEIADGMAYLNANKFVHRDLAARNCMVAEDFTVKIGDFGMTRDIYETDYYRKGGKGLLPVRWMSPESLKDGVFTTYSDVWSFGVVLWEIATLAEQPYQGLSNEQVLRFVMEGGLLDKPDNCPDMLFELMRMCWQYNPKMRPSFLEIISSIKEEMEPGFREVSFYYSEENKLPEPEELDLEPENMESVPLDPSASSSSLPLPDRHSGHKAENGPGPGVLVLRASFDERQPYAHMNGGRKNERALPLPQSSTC
# UniProt P08069, 31-736 limits assumed: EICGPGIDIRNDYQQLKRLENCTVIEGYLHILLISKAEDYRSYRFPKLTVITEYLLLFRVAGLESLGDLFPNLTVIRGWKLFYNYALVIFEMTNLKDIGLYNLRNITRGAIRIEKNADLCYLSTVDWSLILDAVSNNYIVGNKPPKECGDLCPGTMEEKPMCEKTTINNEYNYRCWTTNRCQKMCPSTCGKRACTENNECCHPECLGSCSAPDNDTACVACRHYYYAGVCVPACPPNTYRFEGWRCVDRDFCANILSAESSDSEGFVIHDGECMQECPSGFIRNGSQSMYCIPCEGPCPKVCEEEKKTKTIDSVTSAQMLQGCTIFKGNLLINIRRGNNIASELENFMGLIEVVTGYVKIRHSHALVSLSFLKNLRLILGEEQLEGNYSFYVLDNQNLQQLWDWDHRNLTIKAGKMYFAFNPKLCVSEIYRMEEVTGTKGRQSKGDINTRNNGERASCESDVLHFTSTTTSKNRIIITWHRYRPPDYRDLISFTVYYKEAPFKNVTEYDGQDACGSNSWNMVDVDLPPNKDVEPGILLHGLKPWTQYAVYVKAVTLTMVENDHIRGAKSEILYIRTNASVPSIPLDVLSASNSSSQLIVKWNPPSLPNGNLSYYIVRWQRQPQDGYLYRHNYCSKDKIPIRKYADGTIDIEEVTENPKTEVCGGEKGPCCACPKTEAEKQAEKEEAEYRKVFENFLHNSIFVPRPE
# Key:
# [1] = tested on: hypoxic-ischemic injury, 21 day old Wistar rats; assay type: in vivo; settings: 20 μg GPE per rat, single intraperitoneal injection 2 hours after injury; 120 hrs; p<0.05
# Method: The objective of this study was to compare the effects of treatment with GPE to that of a vehicle given 2 hours after an hypoxic-ischemic injury. The dose range of 2 to 200 μg was chosen to span a range of systemic doses that are greater than that required centrally (see experiment 3).
# Unilateral hypoxic-ischemic injury was induced in 21 day old, 45±5 g Wistar rats. The rats underwent unilateral carotid ligation under light halothane anaesthesia.
# Following one hour recovery they were placed in an incubator at 34 deg C. 85±5% humidity for one hour before the injury. They were subjected to 1 min inhalation hypoxia (FiO2 8.0%) and then returned to room temperature (22 deg C.) and normoxia. […]
# Surviving and dead neurons were discriminated using the thionin/acid fuchsin staining technique (Guan et al J Cereb Blood Flow Metab. 13:609-616 (1993). The results, in which the height of a point is given by the ratio as a percentage of live neurones in the CA1-2 region on the right side to the number on the left side are shown in FIG. 5. Column A is vehicle, column B is 2 μg of GPE, column C is 20 μg of GPE, and column D is 200 μg of GPE. In this figure, the P value (0.031) was calculated by a method using one way ANOVA comparing many groups after Arcsin transformation.
# [2] = [3H]-GPE quantitative receptor autoradiography in coronal brain sections; assay type: binding; settings: coronal rat brain sections; FIG. 6; right side neurons absent due to pre-existing injury
# [3] = tested on: hypoxic-ischemic brain injury, adult male Wistar rats; assay: Experiment 3: lateral cerebroventricular GPE 2 hours after unilateral hypoxic-ischemic brain injury; assay type: in vivo, rat
# IGF-1 receptor = IGF-1 receptor (Homo sapiens, UniProt P08069); settings: cited from earlier work
compound,measurement,setting,value
"NCC(=O)N1CCC[C@H]1C(=O)N[C@@H](CCC(=O)O)C(=O)O [GPE, gly-pro-glu]",loss of neurons in the CA1-2 region of the hippocampus,[1],reduced the loss of neurons
same,[3H]-GPE binding in hippocampus,[2],left hippocampus has bound the radioactive material
same,"number of damaged cells (proportion of live hippocampal neurones remaining, right vs left)","[3]; 3 μg GPE vs vehicle, FIG. 4, p 0.04",significant reduction in the number of damaged cells
same,incidence of hippocampal damage in the ligated hemisphere,"[3]; 3 μg GPE vs vehicle, p<0.05 by Fisher's exact test",reduced the incidence of hippocampal damage
same,incidence of cortical infarction,"[3]; adult rats, 3 μg GPE lateral cerebroventricular injection 2 hours after injury, histology at 120 hrs, vehicle 53%",27%
same,binding to the IGF-1 receptor,IGF-1 receptor,does not

# From patent US6780848B2, “Use of GPE to protect glial cells or non-dopaminergic cells from death from neural injury or disease” (NeuronZ, Ltd., priority 1993, dated 2004)
